The values below come from publication doi:10.1101/2024.10.18.619078.

No constants are given. Whether binding was seen depends on the method and setting. In cells and extracts the contact can be indirect. Binding can be weak; no strength is given. Sequences can lack the tags named with a protein.

The test concerns the target T1, GST-IBR3 (Arabidopsis thaliana) (UniProt Q8RWZ3).
T1 sequence: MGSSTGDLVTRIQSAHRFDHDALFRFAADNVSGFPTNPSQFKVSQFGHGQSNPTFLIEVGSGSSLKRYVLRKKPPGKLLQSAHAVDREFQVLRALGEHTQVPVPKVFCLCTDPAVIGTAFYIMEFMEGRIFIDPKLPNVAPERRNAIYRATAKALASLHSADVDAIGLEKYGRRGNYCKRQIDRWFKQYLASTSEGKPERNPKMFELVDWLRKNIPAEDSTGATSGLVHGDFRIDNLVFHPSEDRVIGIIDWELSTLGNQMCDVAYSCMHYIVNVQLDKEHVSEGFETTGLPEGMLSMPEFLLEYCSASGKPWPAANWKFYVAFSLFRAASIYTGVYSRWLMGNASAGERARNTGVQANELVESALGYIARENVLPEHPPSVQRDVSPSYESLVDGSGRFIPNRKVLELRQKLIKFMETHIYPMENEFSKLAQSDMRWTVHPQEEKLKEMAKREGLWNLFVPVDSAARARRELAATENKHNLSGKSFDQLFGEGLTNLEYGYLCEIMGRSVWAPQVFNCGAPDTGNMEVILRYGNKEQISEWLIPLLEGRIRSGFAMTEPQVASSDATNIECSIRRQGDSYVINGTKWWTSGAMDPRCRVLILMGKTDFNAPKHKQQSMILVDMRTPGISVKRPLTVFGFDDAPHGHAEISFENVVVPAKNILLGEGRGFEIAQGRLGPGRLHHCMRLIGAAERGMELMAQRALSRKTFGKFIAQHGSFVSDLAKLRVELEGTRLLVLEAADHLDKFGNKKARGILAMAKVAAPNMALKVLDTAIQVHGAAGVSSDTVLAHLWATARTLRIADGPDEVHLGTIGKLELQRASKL
Kind of test: pull-down.

As to “12xHis-LIFERING C392R (Arabidopsis thaliana) (enzyme)”, the binding entry is given as “binds”.
Then “12xHis-LIFERING, wild-type (Cys392) (Arabidopsis thaliana) (enzyme)”, with “binds”.
